# Experimental data taken from PubChem BioAssay (NCATS).
# Where “and” joins values, the source holds several entries; their conditions need not be identical. Identical values can stand only once. The inconclusive results got no clear call from the source; some entries with a clear call stand among them for comparison. Potencies beside an inconclusive call are fits to weak or partial responses and may not hold up. Some compounds were tested as several samples or in several runs, with calls that do not always agree. Calls of active or inactive are those of the source. Unless noted, calls come from the whole dose curve; as a rule, active = well fitted curve in the direction sought with a large enough effect; inconclusive = small, poorly fitted or top-dose-only effect, or another doubt; inactive = no such curve, though single readings can be large; an effect the other way counts as inactive or inconclusive.
# How the values were obtained:
# [1] = Quantitative High-Throughput drug screen in 47 multiple myeloma cell lines against the NCATS MIPE library collection: UTMC2_PLB cell viability assay (AID 1919868); conditions: CellTiter-Glo ATP luminescence, 48 h; viability (% of DMSO control): at 45.8 µM (top of the series); note: nearly all actives have a fitted effect of over 55% in size
# How it was run: (§1)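 Inhibition of viability over 48 h was scored by ATP content (CellTiter-Glo) in 500-cell wells. Zero and full viability were defined by media-only and DMSO-only wells.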
# [2] = Quantitative High-Throughput drug screen in 47 multiple myeloma cell lines against the NCATS MIPE library collection: PE2_PLB cell viability assay (AID 1919869); note: nearly all actives have a fitted effect of over 35% in size
# How it was run: as §1
# [3] = Quantitative High-Throughput drug screen in 47 multiple myeloma cell lines against the NCATS MIPE library collection: RPMI8226_ATCC cell viability assay (AID 1919871); note: nearly all actives have a fitted effect of over 30% in size
# How it was run: as §1
# [4] = Quantitative High-Throughput drug screen in 47 multiple myeloma cell lines against the NCATS MIPE library collection: OPM2_DSMZ cell viability assay (AID 1919872); note: nearly all actives have a fitted effect of over 30% in size
# How it was run: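 CellTiter-Glo luminescence (ATP) after 48 h compound exposure, 37C/5% CO2; 500 cells/well; MIPE 4.0 approved/investigational drugs pinned in; DMSO = 100%, media only = 0% viability.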
# HaCat = experiment: Cytotoxic Profiling of Annotated Libraries Using Quantitative High-Throughput Screening (AID 1296008); conditions: Five cell lines viability, CellTiter-Glo ATP luminescence, 48-72 h; max response: hits give low values; note: nearly all actives have a fitted effect of over 60% in size; for max response: % is set by controls: 0 for no effect and ±100 for the full control effect
# How it was run: (§2)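 Cytotoxicity was measured as CellTiter-Glo ATP luminescence, read after 10 min at room temperature. Compound treatment of the cells lasted 48 or 72 hr at 37 degrees Celsius in a qHTS format.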
# KB-3-1 = experiment: as above; conditions: Five cell lines viability, CellTiter-Glo ATP luminescence, 48-72 h; max response: hits give low values
# How it was run: as §2
# NIH3T3 = experiment: as above; conditions: Five cell lines viability, CellTiter-Glo ATP luminescence, 48-72 h; max response: hits give low values
# How it was run: as §2
# [5] = Quantitative High-Throughput drug screen in 47 multiple myeloma cell lines against the NCATS MIPE library collection: PCM6_Riken cell viability assay (AID 1919870); conditions: CellTiter-Glo ATP, 48 h; viability (% of control): at 45.8 µM (top of the series); note: nearly all actives have a fitted effect of over 30% in size
# How it was run: as §1
# [6] = Quantitative High-Throughput drug screen in 47 multiple myeloma cell lines against the NCATS MIPE library collection: KMS11_JCRBsus cell viability assay (AID 1919873); note: nearly all actives have a fitted effect of over 50% in size
# How it was run: as §1
# [7] = qHTS for identification of novel therapeutic agents for treatment of microphthalmiaassociated transcription factor (MiT) renal cell carcinoma (RCC) (AID 1963991; calls by dose curve); conditions: TFE3-RCC UOK109 viability, CellTiter-Glo, 48 h; active = Z-AUC below -0.8 in all three lines
# How it was run: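 Curves over 11 concentrations were fitted to CellTiter-Glo luminescence, scaled between empty wells (0%) and DMSO (100%) viability. Cells were UOK109, UOK124 and UOK145 TFE3-fusion RCC lines at 500/well, exposed 48 hours at 37 C.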
# [8] = Quantitative High-Throughput drug screen in 47 multiple myeloma cell lines against the NCATS MIPE library collection: KMS28BM_JCRB cell viability assay (AID 1919874); note: nearly all actives have a fitted effect of over 35% in size
# How it was run: as §1
# HEK293 = experiment: Cytotoxic Profiling of Annotated Libraries Using Quantitative High-Throughput Screening (AID 1296008); conditions: Five cell lines viability, CellTiter-Glo ATP luminescence, 48-72 h; max response: hits give low values; note: nearly all actives have a fitted effect of over 60% in size; for max response: % is set by controls: 0 for no effect and ±100 for the full control effect
# How it was run: as §2
# MCC-13 = experiment: qHTS assay to identify novel small-molecules to repurpose for Merkel cell carcinoma treatment (AID 1296009); conditions: MCC and control cell lines, CellTiter-Glo viability, 72 h; series mostly up to 46 µM; note: nearly all actives have a fitted effect of over 60% in size
# How it was run: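 72 hr, 37 degree celsius; NPC 8-pt / MIPE 11-pt dose response; compound pinned in DMSO; CellTiter-Glo, 10 min RT, luminescence; normalized to no-cell and DMSO controls.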
# Potency is the fitted concentration of half-maximal effect.
compound,measurement,setting,value
CNc1nc(Nc2ccc(C(=O)N3CCOCC3)cc2OC)ncc1Cl,Potency,[1],"inconclusive: 2.09 µM [cytotoxic, full curve, poor fit]"
same,Potency,[2],"inconclusive: 16.6 µM [cytotoxic, partial curve, poor fit]"
same,Potency,[3],"inconclusive: 8.33 µM [cytotoxic, partial curve, poor fit]"
same,Potency,[4],inactive
same,outcome,HaCat,inactive
same,max response,KB-3-1,inactive: -5.95%
same,outcome,KB-3-1,inactive
same,Potency,NIH3T3,"inconclusive: 37.2 µM [inhibitor, single point] and inconclusive: 18.4 µM [inhibitor, partial curve]"
CCC(=O)NC[C@H](Cc1ccc(OCCc2nc(-c3ccccc3)oc2C)cc1)NC(C)=CC(=O)c1ccc(C(F)(F)F)cc1,Potency,[1],"inconclusive: 0.0059 µM [cytotoxic, full curve, poor fit]"
same,Potency,[5],inactive
same,Potency,[3],active: 23.5 µM
same,Potency,[4],"inconclusive: 29.6 µM [cytotoxic, single point]"
same,Potency,[6],"inconclusive: 5.9 µM [cytotoxic, partial curve, poor fit]"
same,Potency,[7],"inconclusive: 2.64 µM [falling, partial curve]"
same,Potency,HaCat,"inconclusive: 14.8 µM [inhibitor, partial curve]"
same,Potency,NIH3T3,"inconclusive: 1.48 µM [inhibitor, full curve]"
C[C@@]1(c2cc(-c3cncnc3)c(F)cc2F)CCSC(N)=N1,Potency,[1],inactive
same,Potency,[2],"inconclusive: 10.5 µM [cytotoxic, partial curve]"
same,Potency,[4],"inconclusive: 0.0074 µM [rising, full curve, poor fit]"
same,Potency,[6],"inconclusive: 33.2 µM [cytotoxic, single point]"
same,Potency,[8],active: 13.2 µM
same,max response,HaCat,inactive: -8.12% and inactive: -24.8%
CN1CCC(=C2c3ccccc3CC(=O)c3sccc32)CC1,Potency,[4],inconclusive: 0.001 µM [cytotoxic]
same,Potency,[8],"inconclusive: 20.9 µM [cytotoxic, partial curve, poor fit]"
same,Potency,[7],"inconclusive: 16.6 µM [falling, partial curve]"
same,Potency,HEK293,"inconclusive: 33.2 µM [inhibitor, single point] and inconclusive: 33.5 µM [inhibitor, single point]"
CC1COc2c(N3CCN(C)CC3)c(F)cc3c(=O)c(C(=O)O)cn1c23 (centres undefined),Potency,[1],"inconclusive: 3.72 µM [cytotoxic, full curve, poor fit]"
same,Potency,[2],"inconclusive: 1.66 µM [cytotoxic, full curve, poor fit]"
same,Potency,[5],"inconclusive: 1.05 µM [cytotoxic, full curve, poor fit]"
same,Potency,[4],inactive
same,Potency,[6],"inconclusive: 16.6 µM [cytotoxic, single point]"
same,outcome,HaCat,inactive
O=C(CCc1ccc(O)cc1)c1c(O)cc(O)cc1O,Potency,[7],"inconclusive: 0.0332 µM [falling, full curve]"
same,outcome,HaCat,inactive
same,outcome,NIH3T3,inactive
Cn1c2cc(S(C)=O)sc2c2cnn(Cc3cccc(N)c3)c(=O)c21 (centres undefined),Potency,[2],"inconclusive: 0.0012 µM [cytotoxic, full curve, poor fit]"
same,Potency,[3],inactive
same,Potency,[6],inactive
same,Potency,[8],inactive
same,Potency,HEK293,"inconclusive: 37.2 µM [inhibitor, single point]"
Cc1nc(Nc2n[nH]c3c2CN(C(=O)N[C@H](CN(C)C)c2ccccc2)C3(C)C)c2sccc2n1,viability (% of DMSO control),[1],inconclusive: 3.15% [cytotoxic]
same,Potency,[2],active: 0.833 µM
same,Potency,[5],active: 1.87 µM
same,Potency,[7],"inconclusive: 23.5 µM [falling, partial curve]"
same,Potency,HaCat,"inconclusive: 1.46 µM [inhibitor, partial curve, poor fit]"
same,Potency,MCC-13,"inconclusive: 14.8 µM [inhibitor, partial curve]"
CC1(C)SCCN(S(=O)(=O)c2ccc(OCC#CCO)cc2)[C@@H]1C(=O)NO,Potency,[1],"inconclusive: 13.2 µM [cytotoxic, partial curve, poor fit]"
same,Potency,[2],inactive
same,Potency,[5],"inconclusive: 0.0047 µM [rising, full curve, poor fit]"
same,Potency,[3],inactive
same,Potency,[6],"inconclusive: 26.4 µM [cytotoxic, partial curve, poor fit]"
same,Potency,[7],"inconclusive: 0.209 µM [falling, full curve]"
same,Potency,HaCat,"inconclusive: 3.32 µM [inhibitor, full curve]"
COc1ccc(-c2nc3ccc(C4=NNC(=O)CC4C)cc3[nH]2)cc1 (centres undefined),Potency,[1],"inconclusive: 29.6 µM [cytotoxic, single point]"
same,Potency,[2],inactive
same,Potency,HaCat,"inconclusive: 33.5 µM [inhibitor, single point] and inconclusive: 32.6 µM [inhibitor, single point]"
same,Potency,KB-3-1,"inconclusive: 29.1 µM [inhibitor, single point]"
same,Potency,NIH3T3,"inconclusive: 21.1 µM [inhibitor, single point] and inconclusive: 23.1 µM [inhibitor, single point]"
same,Potency,MCC-13,"inconclusive: 15 µM [inhibitor, single point]"
CNS(=O)(=O)Cc1ccc2[nH]cc(CCN(C)C)c2c1,Potency,[1],"inconclusive: 0.0935 µM [cytotoxic, full curve, poor fit]"
same,Potency,[2],active: 14.8 µM
same,Potency,[6],inactive
same,outcome,HaCat,inactive
CN(C)CCc1c[nH]c2ccc(Cn3cncn3)cc12,Potency,[1],inactive
same,Potency,HaCat,"inconclusive: 4.69 µM [inhibitor, full curve]"
same,Potency,NIH3T3,"inconclusive: 3.72 µM [inhibitor, full curve]"
Cn1cnc2c1c(=O)[nH]c(=O)n2C,Potency,[3],active: 20.9 µM
same,Potency,[4],active: 20.9 µM
same,Potency,[8],active: 14.8 µM
same,Potency,HaCat,"inconclusive: 33.2 µM [inhibitor, single point]"
same,Potency,KB-3-1,active: 20.9 µM
same,Potency,MCC-13,inactive
CC1COC2(CCN(c3nc(=O)c4cc(C(F)(F)F)cc([N+](=O)[O-])c4s3)CC2)O1 (centres undefined),Potency,[1],inactive
same,Potency,[2],inactive
same,Potency,[5],inactive
same,Potency,[4],inactive
same,Potency,[8],inactive
same,Potency,HaCat,"inconclusive: 29.1 µM [inhibitor, single point]"
Cn1cnc2c(F)c(Nc3ccc(Br)cc3Cl)c(C(=O)NOCCO)cc21,Potency,[1],inactive
same,Potency,[4],"inconclusive: 0.0017 µM [cytotoxic, full curve, poor fit]"
same,Potency,[8],"inconclusive: 0.0053 µM [cytotoxic, full curve, poor fit]"
same,Potency,[7],"inconclusive: 0.166 µM [falling, full curve]"
same,Potency,HaCat,"inconclusive: 0.0231 µM [inhibitor, full curve]"
same,Potency,NIH3T3,"inconclusive: 18.4 µM [inhibitor, single point]"
same,Potency,MCC-13,"inconclusive: 4.69 µM [inhibitor, partial curve]"
Nc1nc2[nH]cc(CCc3ccc(C(=O)N[C@@H](CCC(=O)O)C(=O)O)cc3)c2c(=O)[nH]1,Potency,[1],"inconclusive: 14.8 µM [cytotoxic, partial curve, poor fit]"
same,Potency,[5],inactive
same,Potency,HaCat,"inconclusive: 1.32 µM [inhibitor, full curve, poor fit]"
CNC(=O)c1ccc2cc(C3(O)CCn4cncc43)ccc2c1 (centres undefined),Potency,[5],inactive
same,Potency,[3],inactive
same,Potency,[8],inactive
same,max response,HEK293,inactive: -5.04% and inactive: 1.96%
CC(S)C(=O)NCC(=O)O (centres undefined),Potency,[1],"inconclusive: 0.0012 µM [cytotoxic, full curve, poor fit]"
same,Potency,[2],inactive
same,Potency,[7],"inconclusive: 33.2 µM [falling, single point]"
same,max response,HaCat,inactive: -2.01%
same,outcome,HaCat,inactive
c1coc(CNc2ncnc3nc[nH]c23)c1,Potency,[2],"inconclusive: 11.8 µM [cytotoxic, partial curve, poor fit]"
same,Potency,[3],"inconclusive: 16.6 µM [cytotoxic, partial curve, poor fit]"
same,Potency,[7],inconclusive: 0.0526 µM
same,outcome,HEK293,inactive
CCCCc1ccc(NS(=O)(=O)c2ccc(C)c(C(=O)N3CCN(c4cccc(C)c4C)CC3)c2)cc1,Potency,[1],"inconclusive: 37.2 µM [cytotoxic, partial curve, poor fit]"
same,Potency,[4],"inconclusive: 20.9 µM [cytotoxic, partial curve]"
same,Potency,[6],"inconclusive: 2.35 µM [cytotoxic, full curve, poor fit]"
same,Potency,KB-3-1,"inconclusive: 37.2 µM [inhibitor, single point]"
CC1(C)CCC(CN2CCN(c3ccc(C(=O)NS(=O)(=O)c4ccc(NCC5CCOCC5)c([N+](=O)[O-])c4)c(Oc4cnc5[nH]ccc5c4)c3)CC2)=C(c2ccc(Cl)cc2)C1,Potency,[1],"inconclusive: 5.9 µM [cytotoxic, partial curve, poor fit]"
same,Potency,[4],active: 20.9 µM
same,Potency,[8],"inconclusive: 13.2 µM [cytotoxic, partial curve, poor fit]"
same,Potency,[7],"inconclusive: 26.4 µM [falling, partial curve]"
same,Potency,KB-3-1,"inconclusive: 7.96 µM [inhibitor, single point]"
NCC1CCC(C(=O)O)CC1 (centres undefined),Potency,[1],"inconclusive: 2.96 µM [cytotoxic, full curve, poor fit]"
same,Potency,[5],inactive
same,Potency,[8],inactive
same,outcome,HaCat,inactive
